Molecules are shown by their SMILES.

Common to all, as to experiment: MTT assay
Holding throughout (type): cell-based
On the technique in general: Tetrazolium assays rely on reduction of a dye to a coloured formazan, in cell work by metabolically active cells.

The test system of assay [1] is HepG2/MDR. Particulars: Homo sapiens, HepG2, 48 h, read-out: IC50 (μM) ± SD HepG2/MDR. On the procedure:
(§1) Cells at a density of 4×10^3 cells/well were inoculated into 96-well plates for overnight culture at 37°C. […] Then, 100 μL of a 0.5 mg/mL MTT solution was pipetted into each well, and the incubation was prolonged for 4 h, resulting in the formation of a purple precipitate. Afterward, 200 μL of DMSO was added to each well, and the plate was vortexed for 10 min. The absorbance at 570 nm was determined with a Synergy 4 microplate reader (BioTek, United States). Each experiment was performed three times under the same conditions.

Assay [2] has as its system HepG2. The settings on record: Homo sapiens, HepG2, 48 h, read-out: IC50 (μM) ± SD HepG2. The method, then:
as §1

In assay [3] the test system is normal human liver cell line L02. The settings on record: 48 h, read-out: IC50 L02. The method, then: as §1
For assay [4], the system named is SNU449. Particulars: Homo sapiens, SNU-449, 48 h, read-out: IC50 (μM) ± SD SNU449. On the procedure: as §1
Assay [5] deals with Huh7. Particulars: Homo sapiens, Huh-7, 48 h, read-out: IC50 (μM) ± SD Huh7. The method, then:
as §1

For assay [6], the system named is Hep3B. The settings on record: Homo sapiens, 48 h, read-out: IC50 (μM) ± SD Hep3B. The method, then: as §1

In the case of `O=C(CCCCCCC(=O)Nc1ccccc1)NO` [SAHA, Vorinostat, reference compound], the IC50 in assay [1] was 6.84 ± 0.52 µM; in assay [2], 0.98 ± 0.06 µM; in assay [3], 79000 ± 6310 nM; in assay [4], 2.07 ± 0.22 µM; in assay [5] it was 1.43 ± 0.08 µM; in assay [6], 1.25 ± 0.11 µM.
